The whole screen tested about 31,000 sequences, of which about 1,400 (4.5%) were called active.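 The calls were made as follows: active = median seed-adjusted z-score above 1 or below -1; inactive = the rest.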 The list shows a part of the results.
Experiment: Novel Modifiers of Survival Motor Neuron (SMN) Protein: Gene Identification via Genome-wide siRNA Screen;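 also: luminescence tracks full-length SMN protein made from the SMN2 reporter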
Conditions: HEK293T SMN2-luciferase reporter, siRNA knockdown, 72 h; actives lie on both sides
In short: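 Each of three siRNAs per gene is reverse-transfected (1 pmol) into reporter HEK293T cells whose luciferase output tracks SMN protein level. After 72 h culture, ONE-Glo luminescence is control-normalized, log10-transformed and MAD-standardized; Common Seed Analysis deprioritizes seed-driven hits.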

Sequence	median seed-adjusted z-score
CCCUAUGUAUGUAACAAUUTT against ZNF124	inactive: -0.487
GAGGCCUAGUGCAACCUAATT against LIPM	inactive: -0.00856
GAGACAAACUAAUUGAGAATT against PPP1R8	inactive: -0.029
GGACGAGAGCUUGAACAGATT against BMPR1B	inactive: 0.5
GGAUGGUGUGGUGACCAUUTT against KCNIP2	inactive: 0.415
CGGCAUCCGAGUACAUCUATT against THAP7	inactive: -0.0317
UCGCUUAUCUCACCCUAUATT against IPO13	inactive: 0.612
CCACCAUCCUACAAGCCUUTT against CYP2S1	inactive: -0.196
GAGCGUACCAAGGAUCUAATT against HDLBP	active: -1.18
CACCAAAUAUAAUAGCCGATT against ARFGAP2	inactive: 0.0672
CAUUGCAUAUUGCAGCGUATT against TNNI3K	inactive: -0.178
GGACAACAACUGAAAUGUATT against ZIM3	inactive: -0.02
CAACCAGACAUAUAGAUCATT against SETDB1	inactive: 0.0517
GGAAGAUUGCUCAGAAUGATT against ACSS2	inactive: 0
CAGAAAUCAGGAAACAUAATT against ZNF786	inactive: -0.518
GGAUCUUUUUAAACCUAUUTT against PIK3C2A	inactive: 0.0177
CCUCCUCUCAGUCUACUCATT against CLTB	inactive: 0.319
GGAUAUGCUUGUACUAGUATT against DDX3Y	inactive: -0.149
ACAUUGUGGAGGGAAUUUATT against GUCA1B	inactive: 0
CCAUAGACAAUACUACCAATT against GPR112	inactive: 0
GCACUGAUGACAACAACUATT against HTR1F	inactive: -0.127
CAGUGGUCCAAGUACAAAUTT against PPIH	inactive: -0.174

Sequence	median seed-adjusted z-score
GCAGUAUGCAGAUUGUUCATT against FGL1	inactive: -0.259
GGAUGACAGUCCAUACUGUTT against FHL5	inactive: 0.0859
GCAGCAAAGAUCUACCGAATT against CS	inactive: -0.419
GACUCUUUUCUACCUCGAATT against MYO1A	inactive: -0.0501
GGCCUACAGCUGGAAGGAATT against CHRM1	active: 1.1
GAAGAGCAUCGGAACCAGATT against STK10	inactive: 0.0138
UGACGGUCAUCUAUACCUUTT against OPN4	inactive: 0.167
GGCAUAGCUUUCCUCUAUATT against ERCC6L	inactive: -0.0229
AGAUGUAUGUUCACACCAATT against IRX4	inactive: 0.0613
CGUGCACAGAUAUUACGCATT against FIGNL1	inactive: -0.408
GAUGAUUACCAGGAACGAATT against CAPRIN1	active: 1.36
CAGUUCAAGUGACAGCGAATT against AFF1	inactive: -0.0394
CGAUGAACGAGUACAUUGATT against GRIA2	active: -1.02
CCAUGGAAAUCCGCACUUUTT against MAN2B1	inactive: -0.246
GGACUUUGAGAAAAGCCGATT against HOOK2	inactive: 0.0914
CUAGAACUGUGAAGCAUAUTT against MMP1	inactive: 0.205
GACCGAAAAUGUAUUAGAATT against USP45	inactive: -0.203
CAUCAACGGAGGCUAUGAATT against ATP13A5	inactive: 0.241
CCGGAAAUCUGAACGGGAATT against ACACA	inactive: 0.00665
UCUCCUCUGCAUGCACUUATT against PAFAH1B3	inactive: -0.381
CCACAAAAAGGGCAUGAUUTT against FPR2	inactive: -0.166
GUUUCAGCGUGAUUCCAAATT against MTMR14	inactive: 0.131

Reformatted as a markdown table: entries from further up.

| Sequence | median seed-adjusted z-score |
| --- | --- |
| UCGCUUAUCUCACCCUAUATT against IPO13 | inactive: 0.612 |
| CCACCAUCCUACAAGCCUUTT against CYP2S1 | inactive: -0.196 |
| GGACAACAACUGAAAUGUATT against ZIM3 | inactive: -0.02 |
| CCAUAGACAAUACUACCAATT against GPR112 | inactive: 0 |
| GGCAUAGCUUUCCUCUAUATT against ERCC6L | inactive: -0.0229 |
| GACCGAAAAUGUAUUAGAATT against USP45 | inactive: -0.203 |
| GUUUCAGCGUGAUUCCAAATT against MTMR14 | inactive: 0.131 |

More records

Sequence	median seed-adjusted z-score
UGCCCGCUGUAGAUGAGAATT against APOC2	inactive: -0.0599
GCCUGUCAUCAUUGGUGUATT against RNF121	inactive: -0.53
GAUUGCGACUGGACUCAAATT against PXDN	inactive: 0.771
CUCUUGCAGAACAACAGAATT against ALG1	inactive: 0
GAUCAGAAUUGAGGUCUUUTT against CASP8	inactive: 0.413
CAUCCUGUCAGUUUCGAAATT against TRAF5	inactive: 0.598
UGCUGACCUCGUUACCUUUTT against UCP3	active: 1.23
GGUAAUGCUUUAUUCCAAATT against ZNF677	inactive: -0.441
GCUACUACCGAAUGGAAAATT against NPHS2	inactive: -0.857
GGAUGUUCCAAAUCACGGATT against MBTD1	inactive: 0.0649
CGUUGUCACUUGCAAUGCUTT against ECHDC3	inactive: 0.378
CCUUGUUAUUGAGAAUGAATT against LPA	inactive: -0.321
GAGUAUCUUUUCUUGCUUATT against EFHA1	inactive: 0.0629
CUGUUGGUAUUGGACUAUATT against EDNRB	inactive: 0.119
CAACAGUACUUACCGAUGUTT against ALDH3A2	inactive: -0.0751
CAACAGUCAUCAACCACUATT against INHBA	inactive: 0.361
CCAGGACUAUUUCCGCAAATT against CACNA1F	inactive: 0.22
CCCAAAUACUGUUUCCCAATT against ACTR1B	inactive: -0.18
AAUUCUACGAGGAAACGAATT against ASMTL	inactive: -0.0375
GCUCAUCGAUGAGUACCAUTT against TUBG1	inactive: 0.618
CCGUGAUUCACUUAGAUCATT against PCM1	inactive: -0.00218
CAUAAGAACCUGUUAGCUATT against RFWD2	inactive: 0.662

Sequence	median seed-adjusted z-score
CCACUUUAAUAAACGUGCUTT against TIMM10	inactive: 0.0738
CCAACAAGGUAGACCCAUUTT against PSMC5	active: -1.06
GCAAUGCGUUCUUUCUAAATT against SIGLEC11	inactive: -0.395
GUCUUGACCUUGAACGCAATT against VIM	inactive: 0.431
GCUGGUUUCUAGCCUGAGATT against PEX12	inactive: -0.129
GCACCUGGCAAAGAUCUAUTT against GNB2	inactive: 0.561
CAUGGAACCUACUACCAAATT against SELPLG	inactive: 0.0378
CACACUUUUUGAACAAUAATT against ABTB2	inactive: 0.432
GACUAUAGGCACAACUACATT against ASGR2	inactive: 0.0772
GAAUGUGGAAGGCAACCUATT against LAMC3	inactive: 0.394
CCAAUGCCGUUUCCAUAGATT against ADAM12	inactive: -0.343
GGAUUGUUCCUGAAACAUUTT against DHTKD1	inactive: 0.591
GUAAAAACCUAAAAGUCAATT against AVPR1B	inactive: -0.423
GAAGACAGGAAUGACCUAATT against VSX1	inactive: -0.91
GGGUUAUAGGAUUACAGAATT against TRIM22	inactive: 0.363
CCUCUACAGCAUUUUCUUATT against DIO3	inactive: 0.0911
GGAAGACGAUUGGAUCAAUTT against EMR4	inactive: -0.475
GCUCCUCAAAGGAUAUGAATT against CAB39L	inactive: 0
CUGCAGUUCUUAAUACGAATT against PSMD1	active: -1.61
GAAGGGCUGUUGAAUUGUATT against HSD17B6	inactive: 0.573
CAAGAGCAGUUUAAUAGCATT against BAT3	inactive: 0.567
GGACCUACAUGCUUCUCAATT against PRPS1L1	inactive: 0

Sequence	median seed-adjusted z-score
GGAGAAUUCUGUAUGGUUUTT against OBFC2B	inactive: -0.061
GCUAUGAUGACAACUGGUATT against PVRL2	inactive: -0.367
GGAGAUCGUUCUGCACAGATT against PAEP	inactive: -0.0632
CCAGAAAUCCUGAUGGGCATT against NLK	inactive: 0.256
GGAUUUCAAGGUUGGGAGATT against FST	inactive: 0.357
GGACUAGUAAUAAAGAGGATT against STAU1	inactive: -0.143
GUGAUAAAGUGAUAAGAUUTT against CPA6	inactive: 0.343
AGAACAGCUUCGUCAUGGATT against SUV39H1	inactive: -0.0775
GGACUAUCUAGUCAACAGATT against ENPEP	inactive: 0.666
CCAUCUAGAUCUUCGUGGATT against SLITRK6	inactive: -0.136
GACAGAAUGUUUGAGACAATT against GOSR1	inactive: -0.252
GCAAAGUCUUUCACCUCAATT against LHX5	inactive: -0.414
CGUGGUUGCAGAUACCUCATT against SPON2	inactive: 0
CAAAAUCCUACGAAAUUCATT against PCDHA1	inactive: -0.013
CCAGCACUAUGAUGCCAAATT against ANG	inactive: -0.481
GGAAUUCCUGGAUAGAUUATT against TTC5	inactive: -0.296
GGACAAUGAUGAGCGCCUCTT against TPSAB1	inactive: 0.197
ACAUGCUCACCUUCACUUUTT against SEMA4C	inactive: -0.334
AGACCCAGCUAGAUUCUGATT against GPR152	inactive: -0.9
GGACGUGACUUACAUAGUUTT against PRLR	inactive: 0.394
